Experiment [1] addresses NOVEL INTERACTOR OF JAZ (NINJA), yeast two-hybrid fusion (Arabidopsis thaliana) (UniProt Q9SV55). Nature of the experiment: two-hybrid; S. cerevisiae PJ69-4A co-transformed with pGADT7 and pGBKT7 fusions; growth on SD lacking Leu, Trp and His (-3) against control (-2); 2 days at 30°C; empty vectors as controls.
The target in experiment [2] is PEAPOD2 (PPD2), yeast two-hybrid fusion (Arabidopsis thaliana) (UniProt Q8GY55). Described as above.

Sequences of proteins named here, by UniProt entry; tags and fusion partners are left off. A change or cut given only in a name is not applied to a line headed by its entry.
UniProt Q9SV55: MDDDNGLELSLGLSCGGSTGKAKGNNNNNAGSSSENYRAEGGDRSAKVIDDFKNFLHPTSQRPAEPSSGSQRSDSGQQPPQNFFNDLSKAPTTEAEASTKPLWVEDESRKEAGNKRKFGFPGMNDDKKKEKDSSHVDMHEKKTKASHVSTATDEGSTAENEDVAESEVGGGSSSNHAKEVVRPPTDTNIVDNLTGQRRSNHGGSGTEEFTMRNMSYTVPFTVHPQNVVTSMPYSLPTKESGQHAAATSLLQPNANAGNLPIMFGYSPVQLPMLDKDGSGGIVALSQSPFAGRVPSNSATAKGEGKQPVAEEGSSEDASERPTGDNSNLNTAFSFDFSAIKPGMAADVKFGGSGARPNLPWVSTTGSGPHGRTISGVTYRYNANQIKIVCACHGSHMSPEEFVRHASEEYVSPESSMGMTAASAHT
UniProt Q8GY55: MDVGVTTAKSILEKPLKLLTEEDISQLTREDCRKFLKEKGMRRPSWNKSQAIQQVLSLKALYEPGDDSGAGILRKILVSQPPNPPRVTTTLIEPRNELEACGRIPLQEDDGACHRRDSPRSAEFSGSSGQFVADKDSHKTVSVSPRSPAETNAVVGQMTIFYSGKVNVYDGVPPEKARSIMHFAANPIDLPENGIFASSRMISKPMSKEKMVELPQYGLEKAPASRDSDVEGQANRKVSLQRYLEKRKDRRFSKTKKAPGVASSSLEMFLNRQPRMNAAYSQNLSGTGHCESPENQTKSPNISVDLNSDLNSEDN
UniProt Q84MB2: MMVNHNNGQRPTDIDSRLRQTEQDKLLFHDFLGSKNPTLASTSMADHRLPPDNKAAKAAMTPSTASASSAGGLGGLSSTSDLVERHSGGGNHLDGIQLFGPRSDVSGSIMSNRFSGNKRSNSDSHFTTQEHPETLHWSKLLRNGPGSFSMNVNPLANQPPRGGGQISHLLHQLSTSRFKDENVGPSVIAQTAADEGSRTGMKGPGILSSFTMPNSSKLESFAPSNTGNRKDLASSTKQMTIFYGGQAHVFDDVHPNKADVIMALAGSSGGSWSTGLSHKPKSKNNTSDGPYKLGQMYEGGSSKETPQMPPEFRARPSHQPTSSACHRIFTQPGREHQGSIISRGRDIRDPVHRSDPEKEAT

No constants are given. Whether binding was seen depends on the method and setting. Binding calls can cover weak binding; strength is not graded here.

Regarding “ZIM domain of TIFY8 (truncation, yeast two-hybrid fusion) (from UniProt Q84MB2) (domain or fragment)”, the binding result in experiment [1] and in experiment [2] was “binds” throughout.
